# In patent publication US20250295652A1, “Inhibitors of Molluscum Contagiosum Infection and Methods Using the Same” (priority 2021, published 2025):
# For at least one compound, name, drawing or mass did not settle the structure.
# Test system: duplex or single-stranded DNA
# Test: Isothermal titration calorimetry (ITC) DNA binding
# Details: 40 μM compound, 25° C.
# Description: Fish sperm DNA (USB Scientific, USA) was dissolved in water and fragmented by sonication in order to generate a random DNA mix. The fragmented DNA was then dialyzed into column buffer absence of glycerol. The 15-mer oligomer comprised of poly d(TC) (Integrated DNA Technologies, USA) was directly prepared in the same buffer without the dialysis step. DNA and compounds were prepared in the same dialysis buffer with added 2.5 mM DTT, 1% DMSO, and 0.005% Tween-20. DNA binding was then assessed by isothermal titration calorimetry (ITC) on a MicroCal iTC200 microcalorimeter (Malvern Instruments, United Kingdom) by titrating 3 μL/injection of 1.2 mg/mL of random DNA (with unknown molar concentration) or 5.3 mg/L of single-stranded DNA into the sample consisting of 40 μM of compound. Experiments were performed at 25° C. with 800 rpm stirring and 3-min spacing in order to allow equilibration. Ethidium bromide (Sigma-Aldrich, USA) was freshly prepared in water. Since the molar concentrations of the DNA ligands were undefined, only raw heat values are depicted.
smiles,measurement,value
"CC[n+]1c(-c2ccccc2)c2cc(N)ccc2c2ccc(N)cc21 [ethidium bromide, reference compound]",DNA binding heat traces (in words),appreciable heats and saturating signals
